This is one part of the list. Residues, ends and D or L forms follow the SMILES beside them. *: point of attachment. Cbz = O=C(OCc1ccccc1)*
Tests used:
Assay in all cases: log2 fold change, soluble protein after heating vs DMSO (PISA); higher = thermal stabilisation; K562 cells, 10 uM, 30 min; active = over 0.2 and 3.5 SD of the protein, either way, in both replicates (recomputed)
IRAK-1-4 Inhibitor I = compound: C1COCCN1CCN2C3=CC=CC=C3N=C2NC(=O)C4=CC(=CC=C4)[N+](=O)[O-] [IRAK-1-4 Inhibitor I]
Procedure, shortened: (§1)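 Thermal stability values are relative to control samples and come from duplicates. They are expressed as log2 fold changes. For measurement, K562 cells (2×10^6 cells/mL) received 10 μM compound for 30 min, and aliquots were heated for 3 min over 48°C-58°C, pooled, and extracted at 4°C in PBS with 0.5% NP-40. Soluble protein, the supernatant after 21,000xg for 90 min, was quantified by TMTpro 16plex LC-MS/MS with equalised channel sums.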

Protein sequences, listed by entry. Tags and fused reporters are not part of them. Lines headed by an entry give the natural chain unless they say otherwise; changes in a name come on top.
UniProt Q9NVM6: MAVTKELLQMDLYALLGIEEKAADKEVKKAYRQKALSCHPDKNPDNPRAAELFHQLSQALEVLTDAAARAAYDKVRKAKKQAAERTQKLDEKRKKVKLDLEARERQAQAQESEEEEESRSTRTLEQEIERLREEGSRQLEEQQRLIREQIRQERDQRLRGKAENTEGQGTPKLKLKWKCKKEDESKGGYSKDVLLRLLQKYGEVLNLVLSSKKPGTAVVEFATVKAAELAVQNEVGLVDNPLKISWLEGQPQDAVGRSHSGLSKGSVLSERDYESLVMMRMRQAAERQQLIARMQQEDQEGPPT
UniProt Q9P2X0: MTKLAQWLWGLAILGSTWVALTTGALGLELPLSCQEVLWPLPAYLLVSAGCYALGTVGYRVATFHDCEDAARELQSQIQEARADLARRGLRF
UniProt Q7Z388: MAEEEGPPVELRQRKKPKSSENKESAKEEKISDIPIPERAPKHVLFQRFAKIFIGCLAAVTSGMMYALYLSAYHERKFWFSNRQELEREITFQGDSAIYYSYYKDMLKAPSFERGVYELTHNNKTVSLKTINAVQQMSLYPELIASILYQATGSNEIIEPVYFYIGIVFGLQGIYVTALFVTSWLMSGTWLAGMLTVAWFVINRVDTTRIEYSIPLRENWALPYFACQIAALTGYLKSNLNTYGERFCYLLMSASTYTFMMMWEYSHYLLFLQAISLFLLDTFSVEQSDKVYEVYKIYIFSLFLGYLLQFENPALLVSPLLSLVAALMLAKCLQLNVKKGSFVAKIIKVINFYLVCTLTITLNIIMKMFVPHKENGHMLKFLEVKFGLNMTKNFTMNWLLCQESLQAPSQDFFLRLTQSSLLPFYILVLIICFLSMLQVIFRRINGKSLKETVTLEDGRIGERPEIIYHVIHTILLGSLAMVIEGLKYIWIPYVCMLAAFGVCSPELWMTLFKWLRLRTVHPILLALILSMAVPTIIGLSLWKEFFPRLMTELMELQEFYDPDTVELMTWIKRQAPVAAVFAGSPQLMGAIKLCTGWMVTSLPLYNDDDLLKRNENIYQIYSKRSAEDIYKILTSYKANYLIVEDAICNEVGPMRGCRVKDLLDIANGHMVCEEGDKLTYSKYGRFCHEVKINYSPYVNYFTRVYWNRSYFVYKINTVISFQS
UniProt Q02487, whole entry, looked up: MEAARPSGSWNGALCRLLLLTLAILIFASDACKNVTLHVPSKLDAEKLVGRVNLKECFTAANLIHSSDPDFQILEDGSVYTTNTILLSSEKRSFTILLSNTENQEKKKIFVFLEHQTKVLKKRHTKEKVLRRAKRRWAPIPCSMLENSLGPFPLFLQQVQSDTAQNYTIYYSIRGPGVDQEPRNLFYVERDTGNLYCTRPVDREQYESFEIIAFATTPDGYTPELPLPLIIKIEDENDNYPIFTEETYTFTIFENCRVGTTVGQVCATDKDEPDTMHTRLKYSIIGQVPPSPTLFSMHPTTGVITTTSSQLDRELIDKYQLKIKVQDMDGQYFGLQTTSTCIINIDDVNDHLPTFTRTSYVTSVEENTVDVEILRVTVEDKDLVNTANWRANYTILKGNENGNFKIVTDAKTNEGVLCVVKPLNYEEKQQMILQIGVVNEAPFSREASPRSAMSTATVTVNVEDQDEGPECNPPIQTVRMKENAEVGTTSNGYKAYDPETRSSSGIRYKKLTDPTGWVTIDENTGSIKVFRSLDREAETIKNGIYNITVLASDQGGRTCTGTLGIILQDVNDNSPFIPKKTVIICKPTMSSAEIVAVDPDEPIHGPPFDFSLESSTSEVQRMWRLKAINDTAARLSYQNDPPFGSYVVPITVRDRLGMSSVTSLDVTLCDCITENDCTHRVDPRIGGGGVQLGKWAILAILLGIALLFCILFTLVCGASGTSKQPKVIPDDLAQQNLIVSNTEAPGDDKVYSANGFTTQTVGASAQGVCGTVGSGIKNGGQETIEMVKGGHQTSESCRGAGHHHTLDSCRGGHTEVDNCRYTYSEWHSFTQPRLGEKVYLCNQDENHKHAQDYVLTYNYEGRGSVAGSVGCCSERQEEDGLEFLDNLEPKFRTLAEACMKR
UniProt Q6ZPD9: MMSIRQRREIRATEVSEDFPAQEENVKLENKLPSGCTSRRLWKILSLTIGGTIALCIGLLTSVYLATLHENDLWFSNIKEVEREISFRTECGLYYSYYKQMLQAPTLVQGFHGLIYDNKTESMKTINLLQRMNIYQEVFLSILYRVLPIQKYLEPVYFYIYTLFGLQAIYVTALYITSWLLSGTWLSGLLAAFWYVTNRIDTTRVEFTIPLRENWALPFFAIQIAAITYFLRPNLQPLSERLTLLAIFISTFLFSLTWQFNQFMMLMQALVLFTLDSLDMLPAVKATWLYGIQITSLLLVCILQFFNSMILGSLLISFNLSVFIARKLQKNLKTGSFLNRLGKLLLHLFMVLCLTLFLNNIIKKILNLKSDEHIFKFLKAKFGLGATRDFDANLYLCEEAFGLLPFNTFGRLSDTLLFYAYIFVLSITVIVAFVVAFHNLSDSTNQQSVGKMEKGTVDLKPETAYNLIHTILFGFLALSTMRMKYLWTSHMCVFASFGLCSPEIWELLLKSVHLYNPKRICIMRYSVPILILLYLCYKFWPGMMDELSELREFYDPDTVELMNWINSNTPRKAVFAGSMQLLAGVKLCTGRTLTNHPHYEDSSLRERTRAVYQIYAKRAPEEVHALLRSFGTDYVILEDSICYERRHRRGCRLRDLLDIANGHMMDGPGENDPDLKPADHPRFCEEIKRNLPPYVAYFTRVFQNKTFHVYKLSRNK
UniProt Q9H3Z4: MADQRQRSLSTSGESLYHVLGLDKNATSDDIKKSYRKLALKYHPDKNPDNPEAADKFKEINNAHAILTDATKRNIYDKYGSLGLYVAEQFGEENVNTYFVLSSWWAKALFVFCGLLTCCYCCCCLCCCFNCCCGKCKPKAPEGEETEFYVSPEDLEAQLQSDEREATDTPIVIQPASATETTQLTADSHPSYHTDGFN
UniProt P60981: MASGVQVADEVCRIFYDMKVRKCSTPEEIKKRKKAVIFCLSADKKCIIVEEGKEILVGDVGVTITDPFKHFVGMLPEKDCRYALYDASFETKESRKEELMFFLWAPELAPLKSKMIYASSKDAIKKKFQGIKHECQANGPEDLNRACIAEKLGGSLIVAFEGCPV
UniProt P63167, whole entry, looked up: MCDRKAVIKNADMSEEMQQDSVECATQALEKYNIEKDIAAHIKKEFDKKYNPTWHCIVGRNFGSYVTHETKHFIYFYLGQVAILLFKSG
UniProt Q9NY33: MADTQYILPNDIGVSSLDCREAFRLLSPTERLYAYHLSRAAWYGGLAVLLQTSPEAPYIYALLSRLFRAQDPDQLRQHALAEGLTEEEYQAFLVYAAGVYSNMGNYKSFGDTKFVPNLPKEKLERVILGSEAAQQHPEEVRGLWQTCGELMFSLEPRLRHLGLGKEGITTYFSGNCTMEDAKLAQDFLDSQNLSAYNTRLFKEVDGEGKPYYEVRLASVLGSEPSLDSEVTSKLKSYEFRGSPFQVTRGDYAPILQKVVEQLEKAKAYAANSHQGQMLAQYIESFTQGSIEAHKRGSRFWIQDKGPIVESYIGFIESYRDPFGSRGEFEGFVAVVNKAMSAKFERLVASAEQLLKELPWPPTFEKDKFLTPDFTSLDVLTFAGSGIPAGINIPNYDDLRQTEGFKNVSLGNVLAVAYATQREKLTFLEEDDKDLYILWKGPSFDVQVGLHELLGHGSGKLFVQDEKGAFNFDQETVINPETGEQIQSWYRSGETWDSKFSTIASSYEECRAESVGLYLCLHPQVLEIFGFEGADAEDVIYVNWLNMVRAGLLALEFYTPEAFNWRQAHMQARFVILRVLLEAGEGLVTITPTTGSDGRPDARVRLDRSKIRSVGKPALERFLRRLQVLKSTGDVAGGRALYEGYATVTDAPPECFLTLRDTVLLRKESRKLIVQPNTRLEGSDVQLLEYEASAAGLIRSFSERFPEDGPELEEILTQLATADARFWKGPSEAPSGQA
UniProt Q9BVJ7: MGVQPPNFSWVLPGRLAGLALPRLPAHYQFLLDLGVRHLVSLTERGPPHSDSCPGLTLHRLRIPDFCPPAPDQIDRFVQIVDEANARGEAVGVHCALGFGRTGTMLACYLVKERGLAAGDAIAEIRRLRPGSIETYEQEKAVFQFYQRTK
UniProt Q9UNI6, whole entry, looked up: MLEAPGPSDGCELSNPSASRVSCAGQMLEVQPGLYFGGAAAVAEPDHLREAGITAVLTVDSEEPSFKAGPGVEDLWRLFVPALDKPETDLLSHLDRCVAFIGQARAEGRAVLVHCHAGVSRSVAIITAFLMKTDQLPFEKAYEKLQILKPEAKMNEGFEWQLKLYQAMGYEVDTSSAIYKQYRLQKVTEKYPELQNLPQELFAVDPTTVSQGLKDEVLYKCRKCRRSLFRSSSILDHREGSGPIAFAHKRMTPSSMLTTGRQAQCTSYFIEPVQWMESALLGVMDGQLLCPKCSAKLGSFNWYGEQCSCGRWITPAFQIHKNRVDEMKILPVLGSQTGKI
UniProt O43598: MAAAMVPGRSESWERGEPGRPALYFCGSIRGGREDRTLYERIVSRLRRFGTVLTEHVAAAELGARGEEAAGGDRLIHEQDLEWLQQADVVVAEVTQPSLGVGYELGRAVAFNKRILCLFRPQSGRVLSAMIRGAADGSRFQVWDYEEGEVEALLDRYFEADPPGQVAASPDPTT
UniProt Q8TBM8: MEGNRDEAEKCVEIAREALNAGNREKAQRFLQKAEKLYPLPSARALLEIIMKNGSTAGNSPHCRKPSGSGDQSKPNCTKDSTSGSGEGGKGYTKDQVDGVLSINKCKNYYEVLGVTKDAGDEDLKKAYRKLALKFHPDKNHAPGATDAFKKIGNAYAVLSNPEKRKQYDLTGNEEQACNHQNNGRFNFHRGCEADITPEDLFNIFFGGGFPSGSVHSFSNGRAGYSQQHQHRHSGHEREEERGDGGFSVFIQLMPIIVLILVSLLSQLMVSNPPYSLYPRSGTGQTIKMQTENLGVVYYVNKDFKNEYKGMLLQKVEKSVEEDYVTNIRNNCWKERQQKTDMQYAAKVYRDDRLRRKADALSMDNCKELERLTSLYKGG
UniProt Q9NTX5: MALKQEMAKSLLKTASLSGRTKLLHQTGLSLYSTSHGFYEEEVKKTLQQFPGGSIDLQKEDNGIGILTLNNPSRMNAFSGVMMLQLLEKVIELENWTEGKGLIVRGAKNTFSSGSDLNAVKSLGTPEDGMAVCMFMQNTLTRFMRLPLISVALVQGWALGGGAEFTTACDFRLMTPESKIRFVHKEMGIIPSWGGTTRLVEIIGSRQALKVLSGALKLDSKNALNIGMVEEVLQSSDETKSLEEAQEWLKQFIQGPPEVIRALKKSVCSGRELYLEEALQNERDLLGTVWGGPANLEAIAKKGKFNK

ibrutinib = compound: C=CC(=O)N1CCC[C@@H](n2nc(-c3ccc(Oc4ccccc4)cc3)c3c(N)ncnc32)C1 [ibrutinib]
Procedure, shortened: as §1

[1] = compound: CC(=O)c1cnc2ccc(-c3cc(Cl)c(O)c(Cl)c3)nc2c1N[C@H]1CC[C@H](CN(C)C)CC1
Procedure, shortened: as §1

ralimetinib = compound: CC(C)(C)Cn1c(N)nc2ccc(-c3[nH]c(C(C)(C)C)nc3-c3ccc(F)cc3)nc21 [ralimetinib]
Procedure, shortened: as §1

[2] = compound: CC(C)(O)CC(=O)NCCn1ccc2ncnc(Nc3ccc(Oc4cccc(C(F)(F)F)c4)c(Cl)c3)c21
Procedure, shortened: as §1

[3] = compound: CC(C)C1=C2N=C(C=C(N2N=C1)NCC3=CC=CC=C3)NCCCCCCN
Procedure, shortened: as §1

[4] = compound: CC(C)C[C@@H](C=O)NC(=O)[C@H](CC(C)C)NC(=O)[C@H](CC(C)C)NC(=O)OCc1ccccc1
Procedure, shortened: as §1

pinometostat = compound: CC(C)N(C[C@H]1O[C@@H](n2cnc3c(N)ncnc32)[C@H](O)[C@@H]1O)[C@H]1C[C@@H](CCc2nc3cc(C(C)(C)C)ccc3[nH]2)C1 [pinometostat]
Procedure, shortened: as §1

[5] = compound: CC1=C(C(CC(=O)N1)C2=CC=C(C=C2)C(F)(F)F)C(=O)NC3=C(C=C4C(=C3)C=NN4)F
Procedure, shortened: as §1

[6] = compound: CC1=C(C2=C(C=C1)C(=O)C3=CC=CC=C3N2CCCN)C
Procedure, shortened: as §1

[7] = compound: CC1=C(C=C(C=C1)NC(=O)C2=CC(=CC=C2)C(C)(C)C#N)NC3=CC4=C(C=C3)N=CN(C4=O)C
Procedure, shortened: as §1

[8] = compound: CC1=C(C=C(C=C1)NC(=O)C2=CC(=CC=C2)N(C)C)NC(=O)C3=CC=C(C=C3)O
Procedure, shortened: as §1

[9] = compound: CC1=CC=C(C=C1)SC2=C3C=C(SC3=CN=C2)C(=O)N
Procedure, shortened: as §1

[10] = compound: CC1=NC(=CC=C1)C2=C(N=C(N2)C(C)(C)C)C3=CC4=NC=CN=C4C=C3
Procedure, shortened: as §1

Nexturastat A = compound: CCCCN(Cc1ccc(C(=O)NO)cc1)C(=O)Nc1ccccc1 [Nexturastat A]
Procedure, shortened: as §1

vemurafenib = compound: CCCS(=O)(=O)Nc1ccc(F)c(C(=O)c2c[nH]c3ncc(-c4ccc(Cl)cc4)cc23)c1F [vemurafenib]
Procedure, shortened: as §1

[11] = compound: CCCS(=O)(=O)Nc1ccc(F)c(C(=O)c2c[nH]c3ncc(Cl)cc23)c1F
Procedure, shortened: as §1

[12] = compound: CCCc1cc(C)[nH]c(=O)c1CNC(=O)c1cc(-c2ccnc(N3CCN(C)CC3)c2)cc2c1cnn2C(C)C
Procedure, shortened: as §1

givinostat = compound: CCN(CC)Cc1ccc2cc(COC(=O)Nc3ccc(C(=O)NO)cc3)ccc2c1 [givinostat]
Procedure, shortened: as §1

barasertib = compound: CCN(CCCOc1ccc2c(Nc3cc(CC(=O)Nc4cccc(F)c4)[nH]n3)ncnc2c1)CCOP(=O)(O)O [barasertib]
Procedure, shortened: as §1

Measured: log2 fold change

DNAJC17 (UniProt Q9NVM6)
inactive: IRAK-1-4 Inhibitor I -0.002 | ibrutinib -0.036 | [1] -0.009 | ralimetinib -0.007 | [2] 0 | [3] 0.07 | [4] -0.019 | pinometostat -0.025 | [5] -0.033 | [6] 0.061 | [7] -0.072 | [8] -0.069 | [9] -0.035 | [10] 0.06 | Nexturastat A -0.094 | vemurafenib -0.034 | [11] -0.179 | [12] 0.013 | givinostat 0.012 | barasertib 0.041

DPM3 isoform 2 (UniProt Q9P2X0)
inactive: IRAK-1-4 Inhibitor I 0.014 | ibrutinib -0.035 | [1] -0.055 | ralimetinib 0.022 | [2] -0.06 | [3] -0.013 | [4] -0.084 | pinometostat 0.021 | [5] 0.048 | [6] 0.138 | [7] 0.05 | [8] -0.011 | [9] -0.151 | [10] 0.089 | Nexturastat A -0.065 | vemurafenib -0.13 | [11] -0.065 | [12] 0.003 | givinostat -0.054 | barasertib 0.118

DPY19L4 (UniProt Q7Z388)
inactive: IRAK-1-4 Inhibitor I 0.137 | ibrutinib 0.043 | [1] 0.017 | ralimetinib -0.057 | [2] -0.041 | [3] 0.112 | [4] 0.031 | pinometostat -0.06 | [5] -0.173 | [6] -0.074 | [7] -0.263 | [8] -0.075 | [9] -0.152 | [10] -0.094 | Nexturastat A -0.054 | vemurafenib -0.045 | [11] -0.146 | [12] -0.017 | givinostat -0.016 | barasertib -0.029

DSC2 (UniProt Q02487)
inactive: IRAK-1-4 Inhibitor I 0.033 | ibrutinib 0.075 | [1] -0.033 | ralimetinib -0.115 | [2] 0.005 | [3] 0.016 | [4] 0.117 | pinometostat -0.052 | [5] 0.052 | [6] 0.029 | [7] -0.03 | [8] 0 | [9] -0.068 | [10] -0.13 | Nexturastat A 0.045 | vemurafenib -0.021 | [11] -0.083 | [12] 0.111 | givinostat -0.012 | barasertib 0.013

DPY19L3 (UniProt Q6ZPD9)
inactive: IRAK-1-4 Inhibitor I -0.233 | ibrutinib -0.08 | [1] 0.042 | ralimetinib -0.117 | [2] -0.025 | [3] -0.036 | [4] 0.252 | pinometostat 0.009 | [5] 0.014 | [6] 0.081 | [7] 0.014 | [8] 0.08 | [9] -0.05 | [10] -0.096 | Nexturastat A 0.039 | vemurafenib 0.037 | [11] -0.129 | [12] -0.089 | givinostat 0.014 | barasertib 0.035

DNAJC5 (UniProt Q9H3Z4)
inactive: IRAK-1-4 Inhibitor I -0.002 | ibrutinib 0.097 | [1] -0.098 | ralimetinib -0.082 | [2] 0.069 | [3] 0.137 | [4] 0.022 | pinometostat -0.024 | [5] -0.047 | [6] -0.062 | [7] -0.066 | [8] 0.017 | [9] -0.089 | [10] -0.027 | Nexturastat A 0.013 | vemurafenib 0.008 | [11] -0.101 | [12] -0.075 | givinostat -0.026 | barasertib 0.021

DSTN (UniProt P60981)
inactive: IRAK-1-4 Inhibitor I 0.027 | ibrutinib -0.007 | [1] 0.061 | ralimetinib -0.016 | [2] 0.015 | [3] -0.042 | [4] 0.024 | pinometostat -0.028 | [5] -0.013 | [6] -0.021 | [7] 0.018 | [8] -0.029 | [9] 0.002 | [10] 0.025 | Nexturastat A -0.059 | vemurafenib 0.027 | [11] 0.002 | [12] 0.001 | givinostat -0.003 | barasertib 0.018

DYNLL1 (UniProt P63167)
inactive: IRAK-1-4 Inhibitor I 0.024 | ibrutinib -0.005 | [1] -0.043 | ralimetinib -0.083 | [2] 0.004 | [3] 0.031 | [4] -0.051 | pinometostat -0.018 | [5] -0.094 | [6] 0.072 | [7] 0.008 | [8] -0.112 | [9] 0.013 | [10] 0.089 | Nexturastat A -0.012 | vemurafenib 0.021 | [11] 0.008 | [12] -0.15 | givinostat -0.009 | barasertib 0.044

DPP3 (UniProt Q9NY33)
inactive: IRAK-1-4 Inhibitor I 0.039 | ibrutinib -0.014 | [1] -0.035 | ralimetinib -0.008 | [2] -0.042 | [3] -0.145 | [4] -0.039 | pinometostat -0.024 | [5] -0.005 | [6] 0.066 | [7] -0.005 | [8] 0 | [9] -0.014 | [10] 0.005 | Nexturastat A -0.052 | vemurafenib -0.002 | [11] 0.02 | [12] -0.047 | givinostat 0.025 | barasertib 0.043

DUSP23 (UniProt Q9BVJ7)
inactive: IRAK-1-4 Inhibitor I 0.033 | ibrutinib 0.025 | [1] -0.03 | ralimetinib 0.004 | [2] -0.059 | [3] 0.064 | [4] 0.04 | pinometostat 0.006 | [5] 0.005 | [6] 0.096 | [7] -0.005 | [8] -0.143 | [9] 0.017 | [10] -0.037 | Nexturastat A 0.002 | vemurafenib -0.155 | [11] 0.016 | [12] -0.016 | givinostat -0.009 | barasertib 0.035

DNMT1 isoform 2 (UniProt P26358)
inactive: IRAK-1-4 Inhibitor I 0.014 | ibrutinib -0.009 | [1] -0.012 | ralimetinib 0.004 | [2] 0 | [3] 0.043 | [4] -0.001 | pinometostat -0.013 | [5] -0.032 | [6] 0.113 | [7] 0.011 | [8] -0.016 | [9] 0.007 | [10] 0.044 | Nexturastat A 0.007 | vemurafenib 0.008 | [11] 0.021 | [12] -0.01 | givinostat -0.025 | barasertib 0.005

DUSP12 (UniProt Q9UNI6)
inactive: IRAK-1-4 Inhibitor I -0.049 | ibrutinib -0.065 | [1] 0.006 | ralimetinib -0.007 | [2] -0.01 | [3] -0.157 | [4] -0.023 | pinometostat -0.032 | [5] -0.067 | [6] -0.056 | [7] 0.045 | [8] -0.049 | [9] 0.01 | [10] 0.066 | Nexturastat A -0.012 | vemurafenib 0.037 | [11] 0.036 | [12] -0.017 | givinostat 0.006 | barasertib 0.008

DNPH1 (UniProt O43598)
inactive: IRAK-1-4 Inhibitor I 0.041 | ibrutinib 0.06 | [1] -0.019 | ralimetinib -0.027 | [2] 0 | [3] 0.063 | [4] -0.003 | pinometostat -0.086 | [5] 0.02 | [6] -0.005 | [7] -0.042 | [8] -0.024 | [9] 0.015 | [10] 0.099 | Nexturastat A 0.057 | vemurafenib -0.012 | [11] 0.01 | [12] -0.017 | givinostat -0.002 | barasertib -0.005

DNAJB14 (UniProt Q8TBM8)
inactive: IRAK-1-4 Inhibitor I 0.083 | ibrutinib 0.015 | [1] -0.112 | ralimetinib -0.035 | [2] 0 | [3] 0.192 | [4] 0.119 | pinometostat -0.003 | [5] -0.065 | [6] 0.069 | [7] -0.049 | [8] -0.14 | [9] 0.041 | [10] 0.079 | Nexturastat A -0.104 | vemurafenib 0.016 | [11] 0.044 | [12] -0.011 | givinostat 0.205 | barasertib -0.029

EAF1 (UniProt Q96JC9)
inactive: IRAK-1-4 Inhibitor I -0.009 | ibrutinib -0.054 | [1] -0.04 | ralimetinib -0.031 | [2] -0.062 | [3] 0.044 | [4] 0.017 | pinometostat -0.022 | [5] -0.019 | [6] -0.103 | [7] 0.028 | [8] 0.003 | [9] -0.039 | [10] -0.014 | Nexturastat A -0.104 | vemurafenib -0.083 | [11] -0.1 | [12] 0.006 | givinostat 0.05 | barasertib -0.008

Three neighbouring entries already listed:
DUSP23 (UniProt Q9BVJ7)
inactive: IRAK-1-4 Inhibitor I 0.033 | ibrutinib 0.025 | [1] -0.03 | ralimetinib 0.004 | [2] -0.059 | [3] 0.064 | [4] 0.04 | pinometostat 0.006 | [5] 0.005 | [6] 0.096 | [7] -0.005 | [8] -0.143 | [9] 0.017 | [10] -0.037 | Nexturastat A 0.002 | vemurafenib -0.155 | [11] 0.016 | [12] -0.016 | givinostat -0.009 | barasertib 0.035

DNMT1 isoform 2 (UniProt P26358)
inactive: IRAK-1-4 Inhibitor I 0.014 | ibrutinib -0.009 | [1] -0.012 | ralimetinib 0.004 | [2] 0 | [3] 0.043 | [4] -0.001 | pinometostat -0.013 | [5] -0.032 | [6] 0.113 | [7] 0.011 | [8] -0.016 | [9] 0.007 | [10] 0.044 | Nexturastat A 0.007 | vemurafenib 0.008 | [11] 0.021 | [12] -0.01 | givinostat -0.025 | barasertib 0.005

DUSP12 (UniProt Q9UNI6)
inactive: IRAK-1-4 Inhibitor I -0.049 | ibrutinib -0.065 | [1] 0.006 | ralimetinib -0.007 | [2] -0.01 | [3] -0.157 | [4] -0.023 | pinometostat -0.032 | [5] -0.067 | [6] -0.056 | [7] 0.045 | [8] -0.049 | [9] 0.01 | [10] 0.066 | Nexturastat A -0.012 | vemurafenib 0.037 | [11] 0.036 | [12] -0.017 | givinostat 0.006 | barasertib 0.008

(cont.)

ECHDC1 (UniProt Q9NTX5)
inactive: IRAK-1-4 Inhibitor I 0.043 | ibrutinib -0.01 | [1] -0.018 | ralimetinib -0.053 | [2] 0.007 | [3] 0.071 | [4] 0 | pinometostat -0.025 | [5] -0.005 | [6] 0.005 | [7] -0.007 | [8] -0.006 | [9] -0.022 | [10] -0.022 | Nexturastat A -0.121 | vemurafenib -0.021 | [11] -0.02 | [12] -0.025 | givinostat -0.017 | barasertib 0.001
